Laboratory results from article PMC3902902.
No constants are given. Whether binding was seen depends on the method and setting. Binding seen in cells or lysates may run through a third protein. Some entries that bind do so weakly or less than the wild type. Sequences can lack the tags named with a protein.

T1: AtCBP80 fused with the N-terminal fragment of EYFP for BiFC (A. thaliana) (UniProt Q9SIU2)
T1 sequence: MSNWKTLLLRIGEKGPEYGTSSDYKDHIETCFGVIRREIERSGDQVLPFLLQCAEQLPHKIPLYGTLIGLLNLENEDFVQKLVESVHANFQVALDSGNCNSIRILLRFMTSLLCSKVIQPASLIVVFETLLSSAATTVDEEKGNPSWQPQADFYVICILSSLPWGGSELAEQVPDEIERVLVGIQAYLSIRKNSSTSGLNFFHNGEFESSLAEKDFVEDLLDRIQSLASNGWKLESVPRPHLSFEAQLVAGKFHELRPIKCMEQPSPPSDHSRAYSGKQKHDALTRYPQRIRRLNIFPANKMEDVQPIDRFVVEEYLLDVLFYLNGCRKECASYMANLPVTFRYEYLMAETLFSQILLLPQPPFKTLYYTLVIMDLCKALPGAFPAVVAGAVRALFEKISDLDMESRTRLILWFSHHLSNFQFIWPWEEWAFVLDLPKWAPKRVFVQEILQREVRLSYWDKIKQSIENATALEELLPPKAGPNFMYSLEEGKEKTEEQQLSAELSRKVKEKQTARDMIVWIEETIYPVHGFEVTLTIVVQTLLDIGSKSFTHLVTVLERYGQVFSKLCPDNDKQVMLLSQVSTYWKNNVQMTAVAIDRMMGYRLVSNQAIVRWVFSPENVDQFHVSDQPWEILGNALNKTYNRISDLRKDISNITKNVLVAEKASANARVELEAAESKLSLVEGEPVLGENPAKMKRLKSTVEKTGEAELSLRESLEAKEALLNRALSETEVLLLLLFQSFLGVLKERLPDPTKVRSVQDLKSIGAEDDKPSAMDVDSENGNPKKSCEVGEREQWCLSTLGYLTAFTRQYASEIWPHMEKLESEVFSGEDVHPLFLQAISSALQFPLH

T2: AtSE (SERRATE) fused to a non-fluorescent fragment of EYFP for BiFC (A. thaliana) (UniProt Q9ZVD0)
T2 sequence: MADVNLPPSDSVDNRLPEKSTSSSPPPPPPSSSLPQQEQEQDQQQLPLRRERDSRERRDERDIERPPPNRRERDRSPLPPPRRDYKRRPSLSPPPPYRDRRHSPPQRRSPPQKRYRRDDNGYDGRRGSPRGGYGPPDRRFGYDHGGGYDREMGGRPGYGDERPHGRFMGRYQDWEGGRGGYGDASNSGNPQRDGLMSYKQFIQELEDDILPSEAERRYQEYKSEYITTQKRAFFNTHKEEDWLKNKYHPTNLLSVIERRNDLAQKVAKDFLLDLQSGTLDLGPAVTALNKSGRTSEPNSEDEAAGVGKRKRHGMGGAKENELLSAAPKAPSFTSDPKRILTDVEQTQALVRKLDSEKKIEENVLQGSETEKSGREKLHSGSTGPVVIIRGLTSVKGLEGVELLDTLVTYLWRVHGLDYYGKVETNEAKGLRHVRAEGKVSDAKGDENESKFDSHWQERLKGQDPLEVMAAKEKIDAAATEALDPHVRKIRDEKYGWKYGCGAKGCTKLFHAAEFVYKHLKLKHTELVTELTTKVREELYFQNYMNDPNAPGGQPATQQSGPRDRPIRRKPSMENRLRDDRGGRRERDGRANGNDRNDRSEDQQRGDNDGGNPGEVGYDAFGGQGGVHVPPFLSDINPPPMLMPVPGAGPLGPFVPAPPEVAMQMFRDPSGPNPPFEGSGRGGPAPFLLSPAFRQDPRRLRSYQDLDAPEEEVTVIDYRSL

T3: MBP-AtSE core (core fragment of SERRATE, residues 194-543, fused with maltose binding protein) (A. thaliana) (UniProt Q9ZVD0)
T3 sequence: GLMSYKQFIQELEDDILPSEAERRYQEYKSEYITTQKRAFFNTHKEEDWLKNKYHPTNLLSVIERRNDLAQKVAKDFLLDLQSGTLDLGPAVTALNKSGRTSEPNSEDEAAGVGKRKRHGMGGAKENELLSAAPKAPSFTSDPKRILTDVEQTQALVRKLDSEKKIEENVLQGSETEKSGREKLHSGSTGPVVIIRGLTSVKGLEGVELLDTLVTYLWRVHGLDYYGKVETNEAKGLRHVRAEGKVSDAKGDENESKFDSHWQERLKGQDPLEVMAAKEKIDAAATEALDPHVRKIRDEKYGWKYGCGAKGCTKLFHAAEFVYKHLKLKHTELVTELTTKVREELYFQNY

T4: MBP-AtSE FL (full-length SERRATE fused with maltose binding protein) (A. thaliana) (UniProt Q9ZVD0)
T4 sequence: T2 sequence

T5: AtSE:FLAG (A. thaliana) (UniProt Q9ZVD0)
T5 sequence: T2 sequence

T6: AtHYL1:FLAG (A. thaliana) (UniProt O04492)
T6 sequence: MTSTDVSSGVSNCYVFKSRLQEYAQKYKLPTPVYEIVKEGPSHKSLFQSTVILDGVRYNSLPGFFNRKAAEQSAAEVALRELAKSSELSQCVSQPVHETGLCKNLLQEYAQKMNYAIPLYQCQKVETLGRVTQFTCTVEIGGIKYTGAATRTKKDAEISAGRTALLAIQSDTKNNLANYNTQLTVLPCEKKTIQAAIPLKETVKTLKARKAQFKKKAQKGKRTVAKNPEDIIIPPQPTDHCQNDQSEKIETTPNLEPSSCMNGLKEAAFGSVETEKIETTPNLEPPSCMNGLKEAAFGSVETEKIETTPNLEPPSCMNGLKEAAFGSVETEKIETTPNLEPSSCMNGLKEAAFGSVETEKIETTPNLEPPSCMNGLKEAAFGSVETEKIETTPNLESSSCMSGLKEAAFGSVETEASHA

B1: AtCBP20 fused to a non-fluorescent fragment of EYFP for BiFC (protein, UniProt Q9XFD1 1-257)
chain: MASLFKEQAKLSAYRDRRFSGTQEEFDEALRASTTVYIGNVSFYTTEEQLYELFSRAGEIKKIIMGLDKNTKTPCGFCFVLFYSREDTEDAVKYISGTILDDRPIRVDFDWGFQEGRQWGRGRSGGQVRDEYRTDYDPARGGYGKLVQKELEAQRQLVDYGTGSLGAYPQAAPTNYGNGRRGGGNYGQGGQNRHGRGDYHRKRQRDDDRYGRDNSRRNTDHESRRDTDSDMRPEKNPRFRESGDSDDDGEDDRKRRS
B2: [35S]-methionine-labeled AtCBP20 (protein, UniProt Q9XFD1 1-257)
chain: B1 chain
modifications: [35S]-methionine labelled
B3: [35S]-methionine-labeled AtCBP80 (protein, UniProt Q9SIU2 1-848)
chain: T1 sequence
modifications: [35S]-methionine labelled
B4: AtCBP20 (endogenous, in plant nuclear lysate) (protein, UniProt Q9XFD1 1-257)
chain: B1 chain
B5: AtCBP80 (endogenous, in plant nuclear lysate) (protein, UniProt Q9SIU2 1-848)
chain: T1 sequence

Assays:
[1] = molecular target: T1, AtCBP80 fused with the N-terminal fragment of EYFP for BiFC (A. thaliana); assay: split reporter; BiFC with complementary EYFP fragments; A. thaliana protoplasts (T87 suspension cells or rosette leaves) co-transfected; fluorescence analysed 20-35 h after transfection
[2] = molecular target: T2, AtSE (SERRATE) fused to a non-fluorescent fragment of EYFP for BiFC (A. thaliana); assay: as above
[3] = molecular target: T3, MBP-AtSE core (core fragment of SERRATE, residues 194-543, fused with maltose binding protein) (A. thaliana); assay: pull-down; MBP fusions from E. coli bound to amylose resin; incubated with [35S]-methionine-labelled in vitro translated proteins (AtCBP20 and AtCBP80 separately or together) in phosphate buffer (28 mM NaH2PO4, 72 mM Na2HPO4, 250 mM KCl, 0.5% Triton X-100) for 2 h at 4°C; eluted with 10 mM maltose; SDS-PAGE and image analyzer; only the target purified
[4] = molecular target: T4, MBP-AtSE FL (full-length SERRATE fused with maltose binding protein) (A. thaliana); assay: as above
AtSE:FLAG (A. thaliana) = molecular target: T5, AtSE:FLAG (A. thaliana); assay: co-IP; nuclear protein lysate of 35-day leaves of transgenic plants, infiltrated with 1% formaldehyde; anti-FLAG magnetic beads overnight at 4°; washed four times with lysis buffer (300 mM NaCl, 0.75% Triton X-100, 0.15% SDS); western blot with anti-AtCBP20 and anti-AtCBP80
[5] = molecular target: T6, AtHYL1:FLAG (A. thaliana); assay: as above

Binder | binding [3] | binding [5] | other results
B1 | – | – | binding [1]: binds; binding [2]: binds
B2 | binds | – | binding [4]: binds
B3 | binds | – | –
B4 | – | no binding | binding (AtSE:FLAG (A. thaliana)): binds
B5 | – | no binding | –
